Data on one substance can be found in EP2982680B1 (Academy of Military Medical Sciences, priority 2013, dated 2014).

Some peptides are written in HELM: one residue between dots, names in brackets for other building blocks, links after the first $.

This data set can be described thus: general procedure: Fmoc solid-phase peptide synthesis; WANG resin (GL Biochem (Shanghai) Ltd.).

With “PEPTIDE1{R.R.R.R.R.R.R.R.R.R.R.R.R.R.R}$$$$V2.0 [R15 sulfate]”, where the note is “late stage modification step, HPLC-UV (stated for R15 sulfate)”, the “purity (crude or final not stated)” value was “higher than 98%”. Further, the step yield result (late stage modification step, average yield, sulfate) is listed as “higher than 70%”. The “final purity (method not given)” value (whole synthesis, HPLC-UV (stated for R15 sulfate)) is “higher than 99.0%”.
